These are yes or no findings as the source states them, for the method shown. In cells and extracts the contact can be indirect. Some results given as binding are weak or reduced against the parent protein; the word gives no strength. Tags and fused reporters may be left off the sequences shown.
B1: C2_01370p-HA (HA-tagged Nri1) (protein, UniProt Q5ALY5 1-618)
chain: MDVRRCRRCKRKRLDDEPDEVRQYKTCAKCRIIERNKKNSRKPLAEETMLYGLKQFREQQSAENYIEEEGLLKDEFFKRYHNKPFNYQEEITKVLNNPNYVPPVLHNHNTDEVVTSSNGNTTGPKYQMTMKTNNTTGVQPPIKSRKQQQQPQPQQQQQQTQQHRHQQHQHQQQTHHHNQLHHQQETVIVDDEEDLYKILSELGNDDNSAKNDSKIIKENLDPYANDNVYDDFQKYLTTILEKLHSDKDIKNLVYLKEFNEVFTTNMSKFDAYTKDRTTLYQSIRLSEKQFRSHLLSNIRAMYIDPIIACLGLLYKQEYTNINEFKSTTSIKCGFSYIAKSAEQDEIKNLKESSIILVYNKKYHLLVIKLNHTSYRPSEIIYPNEFKQKVASVFGLLQMEEYSPESTAIFQNINLDYNAITGGLVYDKLVSVSHTYSEELQKFLKGLDKDVFIADFVNYEKVFKLDEENGVNDDDDDMDVDEEKPENKEEEQPQQQEQEGDVDVKMDVEEDGDHELENDVSQANKNDNESESVGQTEEEEEEEEEEEIQVEEAHVPSDELELALGESLAIENDNESENEINQTTTTFVSNENKEDDNNNDDILTKKESTVEVLDPVFQF
B2: C1_01800p-HA (HA-tagged Nri2) (protein, UniProt Q59T87 1-239)
chain: MVKNTSYKKQKLSSRNRIINQEVPLFPPTKYEKSKATLKHFPSSIVNGVTAEGGLYSLTFKSINCASFVENNELMKTVFKVPKLELSKVTDNDDVDKLKNWKQTLENDINELKKSDSNVANTNIVSDLQNELQTDLENNGNNLATFGEKLADSFVVNINISDGNYKVIQDVIIPGLQVDTFEDVTNPDLSEYEKITLSDTQNEEKEETGNKQETEVGQEVESEQKDENKTEQTSQPTST

Target: Myc-tagged Sth1, the core catalytic subunit of the CaRSC complex (C. albicans)
Experiment: co-IP; lysates of C. albicans cells expressing Sth1-Myc and HA-tagged partner; Sth1-Myc precipitated with polyclonal anti-Myc (ab9106); blot with anti-Myc 9E10 and anti-HA 3F10

| Binder | binding |
| --- | --- |
| B1 | binds |
| B2 | binds |
